Experimental data reported in US20240166669A1, “QUINAZOLINE AMINE DERIVATIVES AS KRAS INHIBITORS” (Nikang Therapeutics, Inc., priority 2021, published 2024).

Amino acid sequences for entries named in this document (tags omitted). Residues count along the entry.
UniProt P01116, 1-188 isoform 2 G12D: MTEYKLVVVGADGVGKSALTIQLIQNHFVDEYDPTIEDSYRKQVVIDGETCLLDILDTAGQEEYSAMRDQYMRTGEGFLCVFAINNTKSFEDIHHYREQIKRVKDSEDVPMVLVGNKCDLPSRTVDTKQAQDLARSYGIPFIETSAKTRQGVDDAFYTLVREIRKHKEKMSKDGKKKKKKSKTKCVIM

Target: K-Ras 12D (Homo sapiens, UniProt P01116, G12D)
Assay: p-ERK Cellular Assay (Biological Example 1)
Type: cell-based
Conditions: read-out: AGS PERK EC50; PANC-1 or A-427 cells (KRAS G12D), 3 hours treatment, Cisbio HTRF p-ERK1/2; Biological Example 1 (value marked #); tested form: mixture of the two enantiomers (3aR,7aR)
Description: The ability of the compound of Formula (IIA1′), (IIA′), (II′), or (II) or a pharmaceutically acceptable salt thereof (test compound) to inhibit K-Ras 12D activity was tested using PANC-1 (ATCC, CRL-1469) and A-427 (ATCC, HTB-53) cell lines which harbor KRAS G12D mutation as described below.
PANC-1 (ATCC, CRL-1469) or A-427 (ATCC, HTB-53) were seeded in 96-well plates and cultured overnight (20,000 cells per well, 200 μl total volume). The following morning, cells were treated with test compound, with starting concentration at 10 μM and 2 log dilution down to 1 nM for 3 hours at 37° C. DMSO treatment served as control. p-ERK was then measured using Advanced Phospho-ERK 1/2 (Thr202/Tyr204) Assay Kit (Cisbio, Cat #64AERPET) following the manufacturer's instruction.
Briefly, medium was removed and 40 μl 1× lysis buffer was added to each well followed by 30 min. incubation on a plate shaker at room temperature. Then 8 μl of lysate was transferred to a white low volume 384-well plate. […] Signal was then measured on a CLARIOstar® plate reader. […]

C#Cc1cccc2cc(O)cc(-c3ncc4c(N5CC6CCC(C5)N6)nc(OCC56CCCN5C5COCC5C6)nc4c3F)c12 (stereo not shown)
pEC50: 8.30

pEC50: −log10 of the molar value. The match of structure and compound is tentative.
